Data set [1] is described as follows: general procedure: solution-phase peptide synthesis; EDCI/HOBt/DIPEA; PyBOP/DMAP for macrolactamization. To be noted: for cyclisation yield: cyclisation step; for step yield: coupling step.
Data set [2] is described as follows: solution-phase peptide synthesis; EDCI/HOBt/DIPEA; PyBOP/DMAP for macrolactamization. The note with it: whole synthesis, total yield.

“Cyclo(Me-D-Leu-D-Leu-L-Leu-Me-D-Leu-D-Leu)” yielded a cyclisation yield in data set [1] (on linear precursor 10g) of 50% yield.

In the case of “Cyclo(Me-D-Leu-L-Leu-D-Leu-Me-D-Leu-L-Leu)”, the cyclisation yield in data set [1] (on linear precursor 10d) was found to be 0.45% yield.

“Cyclo(Me-D-Leu-L-Leu-L-Leu-Me-D-Leu-L-Leu)”: the cyclisation yield in data set [1] (on linear precursor 10c) was 48% yield.

In turn, “Cyclo(Me-L-Leu-D-Leu-D-Leu-Me-L-Leu-D-Leu)” had a cyclisation yield in data set [1] (on linear precursor 10f) of 54% yield.

In turn, “Cyclo(Me-L-Leu-D-Leu-L-Leu-Me-L-Leu-D-Leu)” showed a cyclisation yield in data set [1] (on linear precursor 10e) of 45% yield.

“Cyclo(Me-L-Leu-L-Leu-2-Me-D-Phe-Me-L-Leu-L-Leu)” registered a cyclisation yield in data set [1] (on linear precursor 10p) of 53% yield.

The substance “Cyclo(Me-L-Leu-L-Leu-3-Flu-D-Phe-Me-L-Leu-L-Leu)” yielded a cyclisation yield in data set [1] (on linear precursor 10o) of 53% yield.

On to “Cyclo(Me-L-Leu-L-Leu-4-Bro-D-Phe-Me-L-Leu-L-Leu)”, for which the cyclisation yield in data set [1] (on linear precursor 10r) was found to be 55% yield.

Substance “Cyclo(Me-L-Leu-L-Leu-4-Chl-D-Phe-Me-L-Leu-L-Leu)” returned a cyclisation yield in data set [1] (on linear precursor 10q) of 55% yield.

The substance “Cyclo(Me-L-Leu-L-Leu-D-Ala-Me-L-Leu-L-Leu)” yielded a cyclisation yield in data set [1] (on linear precursor 10k) of 49% yield.

Turning to “Cyclo(Me-L-Leu-L-Leu-D-Leu-Me-L-Leu-L-Leu)”, the cyclisation yield in data set [1] (on linear precursor 10b) came out at 45% yield.

In the case of “Cyclo(Me-L-Leu-L-Leu-D-Met-Me-L-Leu-L-Leu)”, in data set [1] (on linear precursor 10v), the cyclisation yield came to 52% yield.

With “Cyclo(Me-L-Leu-L-Leu-D-Phe-Me-L-Leu-L-Leu)”, the cyclisation yield in data set [1] (on linear precursor 10i) amounted to 51% yield.

In data set [1] (on linear precursor 10h), “Cyclo(Me-L-Leu-L-Leu-D-Pro-Me-L-Leu-L-Leu)” showed a cyclisation yield of 51% yield.

Consider “Cyclo(Me-L-Leu-L-Leu-D-Val-Me-L-Leu-L-Leu)”, for which the cyclisation yield in data set [1] (on linear precursor 10u) was found to be 50% yield.

In data set [1] (on linear precursor 10s), “Cyclo(Me-L-Leu-L-Leu-D-cyclohexyl-Gly-Me-L-Leu-L-Leu)” displayed a cyclisation yield of 51% yield.

In data set [1] (on linear precursor 10t), “Cyclo(Me-L-Leu-L-Leu-D-phenyl-Gly-Me-L-Leu-L-Leu)” showed a cyclisation yield of 51% yield.

“Cyclo(Me-L-Leu-L-Leu-Gly-Me-L-Leu-L-Leu)”: in data set [1] (on linear precursor 10j), the cyclisation yield was found to be 51% yield.

The substance “Cyclo(Me-L-Leu-L-Leu-Methylester-D-Asp-Me-L-Leu-L-Leu)” showed a cyclisation yield in data set [1] (on linear precursor 10n) of 52% yield.

In turn, “Cyclo(Me-L-Leu-L-Leu-O-Me-D-Ser-Me-L-Leu-L-Leu)” came in with a cyclisation yield in data set [1] (on linear precursor 10l) of 52% yield.

Substance “Cyclo(Me-L-Leu-L-Leu-O-Tyr-Me-L-Leu-L-Leu)” registered a cyclisation yield in data set [1] (on linear precursor 10m) of 52% yield.

In data set [1], “N-Boc-Me-D-Leu-D-Leu-D-Leu-Me-D-Leu-D-Leu-OBn” registered a step yield of 84% yield.

“N-Boc-Me-D-Leu-D-Leu-L-Leu-Me-D-Leu-D-Leu-OBn”: the step yield in data set [1] was 81% yield.

Regarding “N-Boc-Me-D-Leu-L-Leu-D-Leu-Me-D-Leu-L-Leu-OBn”, the step yield in data set [1] came out at 79% yield.

Substance “N-Boc-Me-D-Leu-L-Leu-L-Leu-Me-D-Leu-L-Leu-OBn” returned a step yield in data set [1] of 83% yield.

For “N-Boc-Me-L-Leu-D-Leu-D-Leu-Me-L-Leu-D-Leu-OBn”, the step yield in data set [1] was found to be 86% yield.

For “N-Boc-Me-L-Leu-D-Leu-L-Leu-Me-L-Leu-D-Leu-OBn”, in data set [1], the step yield is on record as 84% yield.

The substance “N-Boc-Me-L-Leu-L-Leu-2-Me-D-Phe-Me-L-Leu-L-Leu-OBn” had a step yield in data set [1] of 88% yield.

As to “N-Boc-Me-L-Leu-L-Leu-3-Bro-D-Phe-Me-L-Leu-L-Leu-OBn”, in data set [1], the step yield was found to be 94% yield.

For “N-Boc-Me-L-Leu-L-Leu-3-Chl-D-Phe-Me-L-Leu-L-Leu-OBn”, the step yield in data set [1] is 90% yield.

“N-Boc-Me-L-Leu-L-Leu-3-Flu-D-Phe-Me-L-Leu-L-Leu-OBn”: the step yield in data set [1] is on record as 88% yield.

Turning to “N-Boc-Me-L-Leu-L-Leu-3-Me-D-Phe-Me-L-Leu-L-Leu-OBn”, the step yield in data set [1] came out at 85% yield.

As to “N-Boc-Me-L-Leu-L-Leu-4-Me-D-Phe-Me-L-Leu-L-Leu-OBn”, the step yield in data set [1] was found to be 88% yield.

Regarding “N-Boc-Me-L-Leu-L-Leu-D-Ala-Me-L-Leu-L-Leu-OBn”, the step yield in data set [1] was found to be 85% yield.

In data set [1], “N-Boc-Me-L-Leu-L-Leu-D-Cyclohexyl-Gly-Me-L-Leu-L-Leu-OBn” returned a step yield of 91% yield.

In data set [1], “N-Boc-Me-L-Leu-L-Leu-D-Leu-Me-L-Leu-L-Leu-OBn” registered a step yield of 87% yield.

In data set [1], “N-Boc-Me-L-Leu-L-Leu-D-Met-Me-L-Leu-L-Leu-OBn” displayed a step yield of 96% yield.

In the case of “N-Boc-Me-L-Leu-L-Leu-D-Phe-Me-L-Leu-L-Leu-OBn”, the step yield in data set [1] is given as 86% yield.

In the case of “N-Boc-Me-L-Leu-L-Leu-D-Phenyl-Gly-Me-L-Leu-L-Leu-OBn”, in data set [1], the step yield amounted to 87% yield.

In data set [1], “N-Boc-Me-L-Leu-L-Leu-D-Pro-Me-L-Leu-L-Leu-OBn” returned a step yield of 88% yield.

As to “N-Boc-Me-L-Leu-L-Leu-D-Val-Me-L-Leu-L-Leu-OBn”, the step yield in data set [1] came to 86% yield.

“N-Boc-Me-L-Leu-L-Leu-Gly-Me-L-Leu-L-Leu-OBn” yielded a step yield in data set [1] of 84% yield.

In data set [1], “N-Boc-Me-L-Leu-L-Leu-Methylester-D-Asp-Me-L-Leu-L-Leu-OBn” yielded a step yield of 88% yield.

In the case of “N-Boc-Me-L-Leu-L-Leu-O-Me-D-Ser-Me-L-Leu-L-Leu-OBn”, the step yield in data set [1] was found to be 86% yield.

As for “N-Boc-Me-L-Leu-L-Leu-O-Me-D-Tyr-Me-L-Leu-L-Leu-OBn”, the step yield in data set [1] was found to be 95% yield.

Consider galaxamide, for which, in data set [1] (on linear precursor 10a), the cyclisation yield was found to be 48% yield. Moreover, the isolated yield in data set [2] worked out at 9.7%.

In turn, linear pentapeptide 8 yielded a step yield in data set [1] of 85% yield.
